# PubChem BioAssay AID1224827, NIAID – 2016
# Screen: 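Confirm genes whose knock-down changes LPS-driven TNF promoter activity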 (follow-up of hits)
# Cell system: RAW264.7 G9 mouse macrophage reporter clone
# Knock-down reagent: single siRNA against mouse genes, 100 nM siRNA
# Duration: siRNA for 2 days, then LPS about 16 h
# Treatment: bacterial lipopolysaccharide (LPS), 10 ng/ml, cells fixed after overnight (about 16 h) stimulation
# Detection: 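TNF promoter reporter red fluorescence in nuclei, background subtracted, normalised per plate and to non-targeting control siRNA, as z-scores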
# Direction: TNF reporter z-score, mean: higher = stronger Tnf promoter reporter signal
# Call rule: 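An siRNA is called active when its mean z-score over replicates is at least +2 or at most -2; control wells get no call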
# This is one part, drawn at random, of about 3,800 deposited reagents. In the full data, about 2,200 (57%) were called active. 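Active means a strong reporter change in either direction; calls are per siRNA, not per gene; qiagen siRNAs gave weaker effects.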 Not all columns of the deposit are shown.
gene symbol,PubChem SID,"TNF reporter z-score, mean",outcome
Cercam (cerebral endothelial cell adhesion molecule),SID315487398,3.87,active
Cercam (cerebral endothelial cell adhesion molecule),SID315487399,0.171,inactive
Cercam (cerebral endothelial cell adhesion molecule),SID315487400,-1.92,inactive
Cercam (cerebral endothelial cell adhesion molecule),SID315487401,0.813,inactive
Cercam (cerebral endothelial cell adhesion molecule),SID315487402,0.163,inactive
Cercam (cerebral endothelial cell adhesion molecule),SID315487403,-1.83,inactive
Gspt1 (G1 to S phase transition 1),SID315484233,7.27,active
Gspt1 (G1 to S phase transition 1),SID315484234,5.14,active
Gspt1 (G1 to S phase transition 1),SID315484235,1.91,inactive
Gspt1 (G1 to S phase transition 1),SID315484236,-1.51,inactive
Gspt1 (G1 to S phase transition 1),SID315484237,-2.57,active
Gspt1 (G1 to S phase transition 1),SID315484238,-3.45,active
Cpq (carboxypeptidase Q),SID315485691,8.13,active
Cpq (carboxypeptidase Q),SID315485692,1.78,inactive
Cpq (carboxypeptidase Q),SID315485693,-2.93,active
Cpq (carboxypeptidase Q),SID315485694,4.49,active
Cpq (carboxypeptidase Q),SID315485695,3.59,active
Cpq (carboxypeptidase Q),SID315485696,1.61,inactive
Dynlrb2 (dynein light chain roadblock-type 2),SID315486813,-0.969,inactive
Dynlrb2 (dynein light chain roadblock-type 2),SID315486814,-4.62,active
Dynlrb2 (dynein light chain roadblock-type 2),SID315486815,-4.71,active
Dynlrb2 (dynein light chain roadblock-type 2),SID315486816,3.46,active
Dynlrb2 (dynein light chain roadblock-type 2),SID315486817,-1.27,inactive
Dynlrb2 (dynein light chain roadblock-type 2),SID315486818,-1.67,inactive

Taken from above.
Cpq (carboxypeptidase Q) [SID315485691], TNF reporter z-score, mean: 8.13
For “outcome”, Cpq (carboxypeptidase Q) [SID315485696] is entered as inactive
